# Measured values as given in the supplement of paper PMC12009310.
# Structures can show the parent of a compound that is named as a salt. ± gives the standard deviation of the averaged measurements. This is one part of the list. Baselines shift from plate to plate; read single values as rough.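 The cells are a mouse kidney inner medullary collecting duct line, silenced either for the ciliary gene Rpgrip1l or with a non-targeting control siRNA.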
# Assays:
# mIMCD3 [1] = experiment: robust z score of cell number vs plate controls; higher = more cells (less cytotoxic); conditions: 10 µM, 48 h
# mIMCD3 [2] = experiment: robust z score of cilia incidence (% cells with single cilium) vs plate controls; higher = more ciliated cells; conditions: 10 µM; 48 h; siRNA: siScr
# mIMCD3 [3] = experiment: robust z score of cilia incidence (% cells with single cilium) vs plate controls; higher = more ciliated cells (rescue of cilia loss); conditions: 10 µM; 48 h; siRNA: siRpgrip1l
Compound,robust z score of cell number (mIMCD3 [1]; siRNA: siRpgrip1l),robust z score of cell number (mIMCD3 [1]; siRNA: siScr),robust z score of cilia incidence (mIMCD3 [2]),robust z score of cilia incidence (mIMCD3 [3])
c1cc(Cc2cnc[nH]2)ccn1 [Immethridine dihydrobromide],-5.48 ± 3.3,-1.33 ± 0.15,4.27 ± 4.9,-8.83 ± 6.9
CCCCC1(C2CCCC2)Cc2cc(OCCCC(=O)O)c(Cl)c(Cl)c2C1=O (centres undefined),-189 ± 210,-43.8 ± 11,-8.51 ± 5.4,-172 ± 170
O=c1ccc2[nH]cc(C3=CCNCC3)c2[nH]1,-5.92 ± 2.7,-0.259 ± 2,-1.99 ± 0.84,-15.2 ± 0.8
CCN(CC)CCO[C@H]1CC[C@@]2(C)C(=CC[C@@H]3[C@@H]2CC[C@]2(C)C(=O)CC[C@@H]32)C1,-194 ± 220,-45 ± 11,-45.6 ± 16,-508 ± 320
CN1C2CCC1CC(OC(c1ccccc1)c1ccc(Cl)cc1)C2 (centres undefined),-30.7 ± 0.43,-29.6 ± 15,-49.9 ± 7.6,-27.2 ± 6.2
CCCN(CCC)C1CCc2ccc(O)cc2C1 (centres undefined) [7-Hydroxy-DPAT hydrobromide],1.48 ± 2.2,-1.36 ± 0.86,-1.68 ± 0.7,-6.95 ± 2.8
C=C(C)[C@H]1CN[C@H](C(=O)O)[C@H]1CC(=O)O [Kainic acid],1.36 ± 4.9,1.28 ± 3.1,-3.27 ± 2.2,-10.5 ± 8.7
CN1CC[C@@H]2CN3CCc4cccc(c43)[C@@H]2C1 [SDZ SER 082 fumarate],-25.6 ± 11,-2.72 ± 0.61,-6.26 ± 4.6,-11.7 ± 2.4
C[N+](C)(C)CC#CCN1CCCC1=O [Oxotremorine M],0.819 ± 4.8,-4.44 ± 0.29,5.02 ± 6.2,-9.93 ± 6.1
O=C(O)C1=CCCN(CCOC(c2ccc(C(F)(F)F)cc2)c2ccc(C(F)(F)F)cc2)C1 [CI 966 hydrochloride],-49.7 ± 40,-5.48 ± 2.2,8.26 ± 4.6,-5.89 ± 2.4
C=CCN1CC[C@]23c4c5ccc(O)c4O[C@H]2C(=O)CC[C@@]3(O)[C@H]1C5 [Naloxone hydrochloride],-6.84 ± 3.1,0.449 ± 4,0.228 ± 0.85,-6.66 ± 4.5
CCNC(=O)[C@H]1O[C@@H](n2cnc3c(N)ncnc32)[C@H](O)[C@@H]1O,-4.61 ± 6.3,-6.41 ± 2.9,-5.33 ± 2.5,-13.2 ± 1.4
OC(Cc1ccncc1)C(Cl)(Cl)Cl (centres undefined),-1.42 ± 2.6,0.388 ± 1.8,3.75 ± 5.7,-17.9 ± 8.6
O=C1CN=C(c2cccc(Br)c2)c2oc3ccccc3c2N1,-15 ± 15,-0.858 ± 1.3,0.896 ± 1.3,-6.63 ± 2.8
C(=C\c1ccccc1)/CN1CCN(CCOC(c2ccccc2)c2ccccc2)CC1,-119 ± 86,-158 ± 140,-15.3 ± 0.5,-48.3 ± 5
CC(C)(Cc1c[nH]c2ccc(Cl)cc12)NCCOc1ccccc1OCC1CC1,-30.616 ± 0.013,-29.8 ± 15,-47.7 ± 11,-30.3 ± 5

# Part of the list above in order of SMILES length, largest number first.
Compound,robust z score of cell number (mIMCD3 [1]; siRNA: siRpgrip1l),robust z score of cell number (mIMCD3 [1]; siRNA: siScr),robust z score of cilia incidence (mIMCD3 [2]),robust z score of cilia incidence (mIMCD3 [3])
C(=C\c1ccccc1)/CN1CCN(CCOC(c2ccccc2)c2ccccc2)CC1,-119 ± 86,-158 ± 140,-15.3 ± 0.5,-48.3 ± 5
CC(C)(Cc1c[nH]c2ccc(Cl)cc12)NCCOc1ccccc1OCC1CC1,-30.616 ± 0.013,-29.8 ± 15,-47.7 ± 11,-30.3 ± 5
CN1CC[C@@H]2CN3CCc4cccc(c43)[C@@H]2C1 [SDZ SER 082 fumarate],-25.6 ± 11,-2.72 ± 0.61,-6.26 ± 4.6,-11.7 ± 2.4
